From the supplement of paper PMC12823440, “Inhibitors supercharge kinase turnover through native proteolytic circuits” (Nature, 2025)
Counter-ions that a name gives are not always drawn. Some of the results follow. Hit calls seldom repeat between salt and free forms of one compound.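 Kinases were expressed as nanoluciferase fusions in K562 cells and luminescence was read every 4 h between 2 and 18 h as percent of control, DMSO set to 100% and a positive control to 0%. A time point counts as decreased when the signal drops significantly (2 sigma). The hit call is the authors' own, does not follow from the count of time points alone, and its rule is not shown.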

Sequences of proteins named here, by UniProt entry; tags and fusion partners are left off. A change or cut given only in a name is not applied to a line headed by its entry.
UniProt Q06187: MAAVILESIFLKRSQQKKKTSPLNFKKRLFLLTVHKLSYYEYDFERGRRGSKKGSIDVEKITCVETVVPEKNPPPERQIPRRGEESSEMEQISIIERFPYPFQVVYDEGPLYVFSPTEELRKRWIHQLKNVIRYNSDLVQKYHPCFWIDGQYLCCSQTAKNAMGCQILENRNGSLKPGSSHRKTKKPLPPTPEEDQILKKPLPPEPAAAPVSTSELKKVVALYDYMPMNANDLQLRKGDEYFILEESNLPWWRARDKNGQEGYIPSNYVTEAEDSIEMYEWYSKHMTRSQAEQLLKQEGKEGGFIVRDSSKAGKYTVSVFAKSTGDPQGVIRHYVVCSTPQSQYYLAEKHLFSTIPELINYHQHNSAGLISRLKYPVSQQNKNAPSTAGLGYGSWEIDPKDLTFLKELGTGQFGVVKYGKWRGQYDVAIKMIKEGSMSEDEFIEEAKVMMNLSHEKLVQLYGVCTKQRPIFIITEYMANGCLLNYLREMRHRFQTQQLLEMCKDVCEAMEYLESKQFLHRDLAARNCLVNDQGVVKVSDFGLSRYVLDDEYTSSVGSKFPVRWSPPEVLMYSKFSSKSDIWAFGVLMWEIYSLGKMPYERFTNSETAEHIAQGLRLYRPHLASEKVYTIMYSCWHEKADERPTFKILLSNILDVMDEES
UniProt Q9UQM7, whole entry: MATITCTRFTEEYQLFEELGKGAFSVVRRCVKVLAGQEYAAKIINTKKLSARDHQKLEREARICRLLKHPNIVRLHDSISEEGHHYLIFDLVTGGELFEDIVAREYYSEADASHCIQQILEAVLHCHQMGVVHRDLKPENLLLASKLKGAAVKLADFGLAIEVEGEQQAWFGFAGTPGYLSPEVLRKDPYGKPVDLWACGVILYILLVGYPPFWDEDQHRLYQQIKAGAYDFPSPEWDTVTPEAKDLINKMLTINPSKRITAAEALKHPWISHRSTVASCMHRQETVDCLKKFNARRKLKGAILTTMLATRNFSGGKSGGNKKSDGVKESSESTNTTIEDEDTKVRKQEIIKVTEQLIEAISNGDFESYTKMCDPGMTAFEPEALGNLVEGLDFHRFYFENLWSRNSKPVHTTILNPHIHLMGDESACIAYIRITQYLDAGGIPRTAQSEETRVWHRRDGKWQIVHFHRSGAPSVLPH
UniProt Q15131: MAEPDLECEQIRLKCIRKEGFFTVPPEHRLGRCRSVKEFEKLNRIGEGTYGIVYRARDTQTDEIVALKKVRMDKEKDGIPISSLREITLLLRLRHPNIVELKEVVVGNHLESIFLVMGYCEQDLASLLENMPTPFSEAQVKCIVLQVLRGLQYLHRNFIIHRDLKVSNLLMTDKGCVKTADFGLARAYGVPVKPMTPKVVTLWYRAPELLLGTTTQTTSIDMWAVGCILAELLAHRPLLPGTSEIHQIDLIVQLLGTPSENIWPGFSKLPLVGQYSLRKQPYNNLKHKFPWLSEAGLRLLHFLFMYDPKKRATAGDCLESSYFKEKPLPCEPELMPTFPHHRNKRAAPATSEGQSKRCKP
UniProt Q00526: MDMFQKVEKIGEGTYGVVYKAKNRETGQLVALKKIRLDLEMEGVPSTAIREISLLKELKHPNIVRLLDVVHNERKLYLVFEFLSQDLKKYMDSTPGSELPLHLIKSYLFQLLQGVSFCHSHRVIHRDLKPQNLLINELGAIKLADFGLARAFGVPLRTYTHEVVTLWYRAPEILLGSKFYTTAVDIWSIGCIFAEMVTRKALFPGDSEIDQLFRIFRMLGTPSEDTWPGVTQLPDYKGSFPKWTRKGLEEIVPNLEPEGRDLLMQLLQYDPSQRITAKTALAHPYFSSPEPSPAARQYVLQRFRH
UniProt P11802: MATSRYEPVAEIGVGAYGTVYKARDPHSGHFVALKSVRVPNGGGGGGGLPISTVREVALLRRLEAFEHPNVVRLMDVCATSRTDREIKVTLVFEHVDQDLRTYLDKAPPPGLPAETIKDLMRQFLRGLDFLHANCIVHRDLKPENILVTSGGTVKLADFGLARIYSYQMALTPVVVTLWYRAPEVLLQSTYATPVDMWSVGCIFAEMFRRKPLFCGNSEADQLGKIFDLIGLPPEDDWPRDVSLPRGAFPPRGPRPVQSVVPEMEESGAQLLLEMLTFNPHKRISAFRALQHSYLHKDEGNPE
UniProt Q00535, whole entry, looked up: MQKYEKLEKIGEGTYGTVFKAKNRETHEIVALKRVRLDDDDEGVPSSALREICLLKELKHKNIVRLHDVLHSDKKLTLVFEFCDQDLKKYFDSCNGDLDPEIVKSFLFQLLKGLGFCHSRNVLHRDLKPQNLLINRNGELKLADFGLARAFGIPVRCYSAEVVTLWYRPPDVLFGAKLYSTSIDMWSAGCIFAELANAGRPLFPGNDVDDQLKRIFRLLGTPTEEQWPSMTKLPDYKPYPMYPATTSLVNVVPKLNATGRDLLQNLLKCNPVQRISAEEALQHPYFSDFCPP
UniProt P50613: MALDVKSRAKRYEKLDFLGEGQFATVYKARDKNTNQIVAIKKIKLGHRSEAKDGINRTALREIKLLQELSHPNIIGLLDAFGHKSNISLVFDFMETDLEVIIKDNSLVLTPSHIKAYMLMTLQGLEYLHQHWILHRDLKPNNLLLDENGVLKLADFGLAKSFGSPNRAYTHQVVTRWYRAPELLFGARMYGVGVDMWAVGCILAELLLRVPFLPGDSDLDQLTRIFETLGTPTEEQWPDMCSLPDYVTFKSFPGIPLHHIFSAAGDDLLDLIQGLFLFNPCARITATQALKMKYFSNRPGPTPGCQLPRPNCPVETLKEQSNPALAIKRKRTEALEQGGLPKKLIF
UniProt P50750, whole entry: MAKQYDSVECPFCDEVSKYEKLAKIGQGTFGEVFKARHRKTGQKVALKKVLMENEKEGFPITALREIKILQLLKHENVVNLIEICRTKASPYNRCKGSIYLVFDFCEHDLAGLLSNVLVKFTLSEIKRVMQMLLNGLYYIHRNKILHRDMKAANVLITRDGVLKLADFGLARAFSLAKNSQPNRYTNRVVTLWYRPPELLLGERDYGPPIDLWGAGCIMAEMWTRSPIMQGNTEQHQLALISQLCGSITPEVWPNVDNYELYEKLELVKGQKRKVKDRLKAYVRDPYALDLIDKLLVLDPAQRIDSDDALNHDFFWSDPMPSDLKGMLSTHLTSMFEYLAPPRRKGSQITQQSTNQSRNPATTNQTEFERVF
UniProt O96017, whole entry: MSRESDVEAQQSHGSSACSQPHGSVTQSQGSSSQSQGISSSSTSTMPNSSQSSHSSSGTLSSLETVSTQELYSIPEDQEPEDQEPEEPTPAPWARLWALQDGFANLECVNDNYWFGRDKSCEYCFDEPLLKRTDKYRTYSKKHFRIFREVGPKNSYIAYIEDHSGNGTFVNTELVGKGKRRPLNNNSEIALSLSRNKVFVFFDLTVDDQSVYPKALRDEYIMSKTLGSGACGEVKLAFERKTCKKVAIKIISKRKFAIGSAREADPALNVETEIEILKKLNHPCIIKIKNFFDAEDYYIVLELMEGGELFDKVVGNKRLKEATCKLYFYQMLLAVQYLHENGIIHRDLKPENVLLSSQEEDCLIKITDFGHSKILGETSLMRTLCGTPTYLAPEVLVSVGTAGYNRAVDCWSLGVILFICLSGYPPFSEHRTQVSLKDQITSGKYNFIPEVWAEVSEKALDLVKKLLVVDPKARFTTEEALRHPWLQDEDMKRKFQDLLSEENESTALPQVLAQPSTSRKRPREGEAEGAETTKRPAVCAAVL
UniProt P07333, whole entry: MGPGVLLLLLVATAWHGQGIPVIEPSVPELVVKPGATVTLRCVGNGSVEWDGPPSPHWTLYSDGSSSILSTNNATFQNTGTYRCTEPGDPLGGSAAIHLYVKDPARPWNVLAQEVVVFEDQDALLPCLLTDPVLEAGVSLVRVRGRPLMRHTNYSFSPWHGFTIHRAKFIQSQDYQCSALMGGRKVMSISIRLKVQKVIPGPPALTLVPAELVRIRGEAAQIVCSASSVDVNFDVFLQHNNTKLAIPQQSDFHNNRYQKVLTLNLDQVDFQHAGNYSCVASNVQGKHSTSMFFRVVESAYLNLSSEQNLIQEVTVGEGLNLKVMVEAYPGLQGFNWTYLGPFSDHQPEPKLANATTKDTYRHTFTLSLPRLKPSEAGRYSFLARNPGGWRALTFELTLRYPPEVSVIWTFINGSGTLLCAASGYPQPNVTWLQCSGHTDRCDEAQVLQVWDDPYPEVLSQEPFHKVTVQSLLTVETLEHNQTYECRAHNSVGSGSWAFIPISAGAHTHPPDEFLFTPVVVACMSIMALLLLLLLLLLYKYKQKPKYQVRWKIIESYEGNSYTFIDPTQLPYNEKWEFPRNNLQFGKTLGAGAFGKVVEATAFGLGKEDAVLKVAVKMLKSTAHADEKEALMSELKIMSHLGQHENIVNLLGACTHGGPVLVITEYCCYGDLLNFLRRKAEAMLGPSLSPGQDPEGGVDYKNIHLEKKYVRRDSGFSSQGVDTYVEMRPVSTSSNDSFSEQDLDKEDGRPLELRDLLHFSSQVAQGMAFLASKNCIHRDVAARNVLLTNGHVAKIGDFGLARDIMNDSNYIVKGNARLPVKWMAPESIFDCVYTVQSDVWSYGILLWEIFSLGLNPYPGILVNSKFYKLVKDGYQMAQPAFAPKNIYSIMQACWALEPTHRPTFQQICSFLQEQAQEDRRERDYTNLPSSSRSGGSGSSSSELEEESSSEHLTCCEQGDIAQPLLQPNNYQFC
UniProt P41240: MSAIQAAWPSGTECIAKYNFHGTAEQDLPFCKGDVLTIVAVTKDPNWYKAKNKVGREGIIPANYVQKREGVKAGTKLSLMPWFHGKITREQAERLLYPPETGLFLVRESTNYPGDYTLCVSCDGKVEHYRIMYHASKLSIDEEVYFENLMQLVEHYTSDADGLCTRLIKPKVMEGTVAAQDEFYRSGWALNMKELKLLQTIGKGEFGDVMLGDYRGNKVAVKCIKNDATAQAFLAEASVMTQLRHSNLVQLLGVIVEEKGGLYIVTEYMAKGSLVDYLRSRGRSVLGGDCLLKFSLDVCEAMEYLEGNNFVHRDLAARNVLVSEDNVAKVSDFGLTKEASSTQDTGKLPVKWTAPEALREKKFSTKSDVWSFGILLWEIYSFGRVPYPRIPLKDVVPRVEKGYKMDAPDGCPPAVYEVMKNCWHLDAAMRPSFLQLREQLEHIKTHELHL
UniProt P48729: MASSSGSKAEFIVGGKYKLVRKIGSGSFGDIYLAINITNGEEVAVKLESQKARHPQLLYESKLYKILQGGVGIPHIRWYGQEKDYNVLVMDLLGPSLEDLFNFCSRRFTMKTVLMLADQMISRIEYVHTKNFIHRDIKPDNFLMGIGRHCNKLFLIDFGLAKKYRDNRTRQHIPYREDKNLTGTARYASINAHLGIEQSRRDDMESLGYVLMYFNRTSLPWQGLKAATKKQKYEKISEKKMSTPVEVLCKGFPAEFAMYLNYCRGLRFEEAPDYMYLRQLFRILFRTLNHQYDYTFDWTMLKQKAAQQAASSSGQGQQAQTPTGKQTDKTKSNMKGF
UniProt P48730: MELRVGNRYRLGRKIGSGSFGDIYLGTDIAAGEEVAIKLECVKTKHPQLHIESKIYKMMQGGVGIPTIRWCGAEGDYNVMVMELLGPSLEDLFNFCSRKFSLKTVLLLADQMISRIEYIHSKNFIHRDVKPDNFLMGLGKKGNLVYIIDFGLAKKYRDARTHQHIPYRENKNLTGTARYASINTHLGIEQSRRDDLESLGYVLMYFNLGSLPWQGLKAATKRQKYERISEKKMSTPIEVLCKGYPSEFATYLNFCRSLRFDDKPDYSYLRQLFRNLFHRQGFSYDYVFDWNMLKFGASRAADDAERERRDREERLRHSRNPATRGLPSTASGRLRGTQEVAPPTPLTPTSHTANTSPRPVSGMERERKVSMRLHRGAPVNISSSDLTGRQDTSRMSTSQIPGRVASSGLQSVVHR
UniProt Q9Y463, whole entry, looked up: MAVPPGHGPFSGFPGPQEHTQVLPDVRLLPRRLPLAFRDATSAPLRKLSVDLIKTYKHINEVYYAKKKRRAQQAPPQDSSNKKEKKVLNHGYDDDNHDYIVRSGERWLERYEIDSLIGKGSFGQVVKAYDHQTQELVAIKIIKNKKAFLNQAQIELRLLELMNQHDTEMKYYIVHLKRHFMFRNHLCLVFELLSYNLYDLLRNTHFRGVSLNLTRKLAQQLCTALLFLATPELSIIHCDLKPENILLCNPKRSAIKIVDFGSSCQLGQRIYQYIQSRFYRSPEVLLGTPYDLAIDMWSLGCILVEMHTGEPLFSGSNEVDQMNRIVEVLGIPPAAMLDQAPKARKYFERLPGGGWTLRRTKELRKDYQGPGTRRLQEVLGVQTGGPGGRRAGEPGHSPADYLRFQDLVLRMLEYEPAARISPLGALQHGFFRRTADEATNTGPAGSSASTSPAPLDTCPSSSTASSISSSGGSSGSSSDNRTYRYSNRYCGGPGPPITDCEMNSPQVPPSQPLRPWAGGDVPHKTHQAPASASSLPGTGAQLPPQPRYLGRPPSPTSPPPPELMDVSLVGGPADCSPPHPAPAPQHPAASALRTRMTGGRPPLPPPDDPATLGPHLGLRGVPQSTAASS

Legend:
Experiment in all cases: kinase-Nluc reporter destabilization hit call (1 = scored as downregulated) (binary); higher = compound decreases kinase abundance
Details in all cases: K562; 2-18 h
[1] = tested on: BRAF_V600E
[2] = target: BTK (UniProt Q06187)
[3] = target: CAMK2A (UniProt Q9UQM7)
[4] = target: CAMK2G (UniProt Q13555)
[5] = target: CDK10 (UniProt Q15131)
[6] = target: CDK2 (UniProt P24941)
[7] = target: CDK3 (UniProt Q00526)
[8] = target: CDK4 (UniProt P11802)
[9] = target: CDK5 (UniProt Q00535)
[10] = target: CDK6 (UniProt Q00534)
[11] = target: CDK7 (UniProt P50613)
[12] = target: CDK9 (UniProt P50750)
[13] = target: CHEK2 (UniProt O96017)
[14] = target: CSF1R (UniProt P07333)
[15] = target: CSK (UniProt P41240)
[16] = target: CSNK1A1 (UniProt P48729)
[17] = target: CSNK1D (UniProt P48730)
[18] = target: DDR1 (UniProt Q08345)
[19] = target: DYRK1B (UniProt Q9Y463)
[20] = target: DYRK2 (UniProt Q92630)

| SMILES | kinase-Nluc reporter destabilization hit call [1] | kinase-Nluc reporter destabilization hit call [2] | kinase-Nluc reporter destabilization hit call [3] | kinase-Nluc reporter destabilization hit call [4] | kinase-Nluc reporter destabilization hit call [5] | kinase-Nluc reporter destabilization hit call [6] | kinase-Nluc reporter destabilization hit call [7] | kinase-Nluc reporter destabilization hit call [8] | kinase-Nluc reporter destabilization hit call [9] | kinase-Nluc reporter destabilization hit call [10] | kinase-Nluc reporter destabilization hit call [11] | kinase-Nluc reporter destabilization hit call [12] | kinase-Nluc reporter destabilization hit call [13] | kinase-Nluc reporter destabilization hit call [14] | kinase-Nluc reporter destabilization hit call [15] | kinase-Nluc reporter destabilization hit call [16] | kinase-Nluc reporter destabilization hit call [17] | kinase-Nluc reporter destabilization hit call [18] | kinase-Nluc reporter destabilization hit call [19] | kinase-Nluc reporter destabilization hit call [20] |
| --- | --- | --- | --- | --- | --- | --- | --- | --- | --- | --- | --- | --- | --- | --- | --- | --- | --- | --- | --- | --- |
| CC(=O)Nc1nc(C)c(-c2nc(N3CCCC(O)C3)no2)s1 (stereo not given) (10 µM) | inactive: 0 | inactive: 0 | inactive: 0 | inactive: 0 | inactive: 0 | inactive: 0 | inactive: 0 | inactive: 0 | inactive: 0 | inactive: 0 | inactive: 0 | inactive: 0 | inactive: 0 | inactive: 0 | inactive: 0 | inactive: 0 | inactive: 0 | inactive: 0 | inactive: 0 | inactive: 0 |
| Cc1cc2cc(Oc3ccnc(Nc4cccc(CS(=O)(=O)NCCN(C)C)c4)n3)ccc2[nH]1 [Sulfatinib] (10 µM) | inactive: 0 | inactive: 0 | inactive: 0 | inactive: 0 | inactive: 0 | inactive: 0 | inactive: 0 | inactive: 0 | inactive: 0 | inactive: 0 | inactive: 0 | inactive: 0 | inactive: 0 | inactive: 0 | inactive: 0 | inactive: 0 | inactive: 0 | inactive: 0 | inactive: 0 | inactive: 0 |
| c1ccc(-c2nn3c(c2-c2ccnc4cc(OCCN5CCOCC5)ccc24)CCC3)nc1 (10 µM) | inactive: 0 | inactive: 0 | inactive: 0 | inactive: 0 | inactive: 0 | inactive: 0 | inactive: 0 | inactive: 0 | inactive: 0 | inactive: 0 | inactive: 0 | inactive: 0 | inactive: 0 | inactive: 0 | inactive: 0 | inactive: 0 | inactive: 0 | inactive: 0 | inactive: 0 | inactive: 0 |
| C[C@H]1Cc2ccccc2N1C(=O)Cc1nc(N2CCOCC2)cc(=O)[nH]1 (2.5 µM) | inactive: 0 | inactive: 0 | inactive: 0 | inactive: 0 | inactive: 0 | inactive: 0 | inactive: 0 | inactive: 0 | inactive: 0 | inactive: 0 | inactive: 0 | inactive: 0 | inactive: 0 | inactive: 0 | inactive: 0 | inactive: 0 | inactive: 0 | inactive: 0 | inactive: 0 | inactive: 0 |
| c1cc(-c2cnn3cc(-c4ccc(N5CCNCC5)cc4)cnc23)c2cccnc2c1 (2.5 µM) | inactive: 0 | inactive: 0 | inactive: 0 | inactive: 0 | inactive: 0 | inactive: 0 | inactive: 0 | inactive: 0 | inactive: 0 | inactive: 0 | inactive: 0 | inactive: 0 | inactive: 0 | inactive: 0 | inactive: 0 | inactive: 0 | inactive: 0 | active: 1 | inactive: 0 | inactive: 0 |
| Cc1nc(NC(=O)NCCc2nnn(CCF)n2)sc1-c1ccc(S(C)(=O)=O)c(F)c1 (10 µM) | inactive: 0 | inactive: 0 | inactive: 0 | inactive: 0 | inactive: 0 | inactive: 0 | inactive: 0 | inactive: 0 | inactive: 0 | inactive: 0 | inactive: 0 | inactive: 0 | inactive: 0 | inactive: 0 | inactive: 0 | inactive: 0 | inactive: 0 | inactive: 0 | inactive: 0 | inactive: 0 |
| CC(C)(O)[C@@H]1CC[C@](C)([C@H]2[C@@H](O)C[C@@]3(C)[C@@H]4C[C@H](O[C@@H]5O[C@H](CO)[C@@H](O)[C@H](O)[C@H]5O)[C@H]5C(C)(C)[C@@H](O[C@@H]6OC[C@@H](O)[C@H](O)[C@H]6O[C@@H]6O[C@H](CO)[C@@H](O)[C@H](O)[C@H]6O)CC[C@@]56C[C@@]46CC[C@]23C)O1 [Astragaloside VI] (10 µM) | inactive: 0 | inactive: 0 | inactive: 0 | inactive: 0 | inactive: 0 | inactive: 0 | inactive: 0 | inactive: 0 | inactive: 0 | inactive: 0 | inactive: 0 | inactive: 0 | inactive: 0 | inactive: 0 | inactive: 0 | inactive: 0 | inactive: 0 | inactive: 0 | inactive: 0 | inactive: 0 |
| N=C(N)NC(=N)NCCc1ccccc1 [Phenformin (hydrochloride)] (10 µM) | inactive: 0 | inactive: 0 | inactive: 0 | inactive: 0 | inactive: 0 | inactive: 0 | inactive: 0 | inactive: 0 | inactive: 0 | inactive: 0 | inactive: 0 | inactive: 0 | inactive: 0 | inactive: 0 | inactive: 0 | inactive: 0 | inactive: 0 | inactive: 0 | inactive: 0 | inactive: 0 |
| CN(C)c1nc2c(Br)c(Br)c(Br)c(Br)c2n1CC(=O)O (10 µM) | inactive: 0 | inactive: 0 | inactive: 0 | inactive: 0 | inactive: 0 | inactive: 0 | inactive: 0 | inactive: 0 | inactive: 0 | inactive: 0 | inactive: 0 | inactive: 0 | inactive: 0 | inactive: 0 | inactive: 0 | inactive: 0 | inactive: 0 | inactive: 0 | inactive: 0 | inactive: 0 |
| COc1ccc2c(c1OC)OC1c3ccc(O)cc3OCC21 (stereo not given) [Methylnissolin] (10 µM) | inactive: 0 | inactive: 0 | inactive: 0 | inactive: 0 | inactive: 0 | inactive: 0 | inactive: 0 | inactive: 0 | inactive: 0 | inactive: 0 | inactive: 0 | inactive: 0 | inactive: 0 | inactive: 0 | inactive: 0 | inactive: 0 | inactive: 0 | inactive: 0 | inactive: 0 | inactive: 0 |
| COc1ccc2c(=O)c(-c3ccccc3)coc2c1 [7-Methoxyisoflavone] (10 µM) | inactive: 0 | inactive: 0 | inactive: 0 | inactive: 0 | inactive: 0 | inactive: 0 | inactive: 0 | inactive: 0 | inactive: 0 | inactive: 0 | inactive: 0 | inactive: 0 | inactive: 0 | inactive: 0 | inactive: 0 | inactive: 0 | inactive: 0 | inactive: 0 | inactive: 0 | inactive: 0 |
| NCCCCCCNS(=O)(=O)c1cccc2c(Cl)cccc12 [W-7 (hydrochloride)] (10 µM) | inactive: 0 | inactive: 0 | inactive: 0 | inactive: 0 | inactive: 0 | inactive: 0 | inactive: 0 | inactive: 0 | inactive: 0 | inactive: 0 | inactive: 0 | inactive: 0 | inactive: 0 | inactive: 0 | inactive: 0 | inactive: 0 | inactive: 0 | inactive: 0 | inactive: 0 | inactive: 0 |

Another view of 2 compounds above:
SMILES | kinase-Nluc reporter destabilization hit call [1] | kinase-Nluc reporter destabilization hit call [2] | kinase-Nluc reporter destabilization hit call [3] | kinase-Nluc reporter destabilization hit call [4] | kinase-Nluc reporter destabilization hit call [5] | kinase-Nluc reporter destabilization hit call [6] | kinase-Nluc reporter destabilization hit call [7] | kinase-Nluc reporter destabilization hit call [8] | kinase-Nluc reporter destabilization hit call [9] | kinase-Nluc reporter destabilization hit call [10] | kinase-Nluc reporter destabilization hit call [11] | kinase-Nluc reporter destabilization hit call [12] | kinase-Nluc reporter destabilization hit call [13] | kinase-Nluc reporter destabilization hit call [14] | kinase-Nluc reporter destabilization hit call [15] | kinase-Nluc reporter destabilization hit call [16] | kinase-Nluc reporter destabilization hit call [17] | kinase-Nluc reporter destabilization hit call [18] | kinase-Nluc reporter destabilization hit call [19] | kinase-Nluc reporter destabilization hit call [20]
CN(C)c1nc2c(Br)c(Br)c(Br)c(Br)c2n1CC(=O)O (10 µM) | inactive: 0 | inactive: 0 | inactive: 0 | inactive: 0 | inactive: 0 | inactive: 0 | inactive: 0 | inactive: 0 | inactive: 0 | inactive: 0 | inactive: 0 | inactive: 0 | inactive: 0 | inactive: 0 | inactive: 0 | inactive: 0 | inactive: 0 | inactive: 0 | inactive: 0 | inactive: 0
COc1ccc2c(c1OC)OC1c3ccc(O)cc3OCC21 (stereo not given) [Methylnissolin] (10 µM) | inactive: 0 | inactive: 0 | inactive: 0 | inactive: 0 | inactive: 0 | inactive: 0 | inactive: 0 | inactive: 0 | inactive: 0 | inactive: 0 | inactive: 0 | inactive: 0 | inactive: 0 | inactive: 0 | inactive: 0 | inactive: 0 | inactive: 0 | inactive: 0 | inactive: 0 | inactive: 0
